According to publication PMC11110379:
Results are given in words; binding and its absence hold for the method and conditions named. In cells and extracts the contact can be indirect. Some entries that bind do so weakly or less than the wild type. For some assays here: Where a sequence is shown, tags or fusion partners need not be part of it.

T1: Tripartite motif-containing 26 (TRIM26), endogenous (human (endogenous in 786-O and Caki-1)) (UniProt Q12899)
T1 sequence: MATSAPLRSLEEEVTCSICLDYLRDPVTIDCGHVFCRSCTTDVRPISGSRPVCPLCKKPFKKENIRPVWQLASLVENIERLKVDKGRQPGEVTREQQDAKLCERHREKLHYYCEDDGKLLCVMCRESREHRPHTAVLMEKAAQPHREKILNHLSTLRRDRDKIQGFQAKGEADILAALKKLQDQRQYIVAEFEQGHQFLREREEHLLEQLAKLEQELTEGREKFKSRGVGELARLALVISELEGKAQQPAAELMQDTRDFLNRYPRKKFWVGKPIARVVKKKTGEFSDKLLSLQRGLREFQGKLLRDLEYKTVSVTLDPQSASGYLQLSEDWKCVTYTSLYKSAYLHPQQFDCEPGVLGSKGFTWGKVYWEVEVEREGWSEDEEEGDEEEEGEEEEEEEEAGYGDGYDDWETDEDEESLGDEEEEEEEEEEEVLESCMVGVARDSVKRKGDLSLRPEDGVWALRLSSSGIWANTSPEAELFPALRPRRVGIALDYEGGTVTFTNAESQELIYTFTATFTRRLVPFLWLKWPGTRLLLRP

T2: FLAG-TRIM26 (human) (UniProt Q12899)
T2 sequence: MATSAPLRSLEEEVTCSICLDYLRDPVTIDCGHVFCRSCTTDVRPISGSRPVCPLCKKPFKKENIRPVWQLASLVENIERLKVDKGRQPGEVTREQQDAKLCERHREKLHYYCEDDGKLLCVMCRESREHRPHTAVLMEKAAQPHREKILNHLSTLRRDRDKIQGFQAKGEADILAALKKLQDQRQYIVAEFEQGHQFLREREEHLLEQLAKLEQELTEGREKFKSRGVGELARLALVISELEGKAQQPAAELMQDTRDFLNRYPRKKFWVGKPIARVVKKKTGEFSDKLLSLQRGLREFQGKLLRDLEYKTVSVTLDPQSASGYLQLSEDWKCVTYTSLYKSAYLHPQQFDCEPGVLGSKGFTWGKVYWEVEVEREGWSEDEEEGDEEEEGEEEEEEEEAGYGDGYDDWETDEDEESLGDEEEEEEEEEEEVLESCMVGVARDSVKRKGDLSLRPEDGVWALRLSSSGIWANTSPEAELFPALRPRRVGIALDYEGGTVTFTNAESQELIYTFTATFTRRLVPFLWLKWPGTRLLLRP


Experiments:
[1] = molecular target: T1, Tripartite motif-containing 26 (TRIM26), endogenous (human (endogenous in 786-O and Caki-1)); assay: co-IP; endogenous proteins in lysates of 786-O and Caki-1 cells; IP lysis buffer, specific antibodies or IgG overnight at 4 °C, protein A/G magnetic beads, western blot
FLAG-TRIM26 (human) = molecular target: T2, FLAG-TRIM26 (human); assay: co-IP; FLAG-TRIM26 and HA-ETK expressed in HEK 293T cells; immunoprecipitation with anti-FLAG or anti-HA antibodies, protein A/G magnetic beads, western blot

binding [1] | binding (FLAG-TRIM26 (human)) | Binder
binds |  | ETK, non-receptor tyrosine kinase (bone marrow tyrosine kinase, BMX), endogenous (protein, UniProt P51813 1-675) MDTKSILEELLLKRSQQKKKMSPNNYKERLFVLTKTNLSYYEYDKMKRGSRKGSIEIKKIRCVEKVNLEEQTPVERQYPFQIVYKDGLLYVYASNEESRSQWLKALQKEIRGNPHLLVKYHSGFFVDGKFLCCQQSCKAAPGCTLWEAYANLHTAVNEEKHRVPTFPDRVLKIPRAVPVLKMDAPSSSTTLAQYDNESKKNYGSQPPSSSTSLAQYDSNSKKIYGSQPNFNMQYIPREDFPDWWQVRKLKSSSSSEDVASSNQKERNVNHTTSKISWEFPESSSSEEEENLDDYDWFAGNISRSQSEQLLRQKGKEGAFMVRNSSQVGMYTVSLFSKAVNDKKGTVKHYHVHTNAENKLYLAENYCFDSIPKLIHYHQHNSAGMITRLRHPVSTKANKVPDSVSLGNGIWELKREEITLLKELGSGQFGVVQLGKWKGQYDVAVKMIKEGSMSEDEFFQEAQTMMKLSHPKLVKFYGVCSKEYPIYIVTEYISNGCLLNYLRSHGKGLEPSQLLEMCYDVCEGMAFLESHQFIHRDLAARNCLVDRDLCVKVSDFGMTRYVLDDQYVSSVGTKFPVKWSAPEVFHYFKYSSKSDVWAFGILMWEVFSLGKQPYDLYDNSQVVLKVSQGHRLYRPHLASDTIYQIMYSCWHELPEKRPTFQQLLSSIEPLREKDKH
 | binds | HA-ETK (protein, UniProt P51813 1-675) MDTKSILEELLLKRSQQKKKMSPNNYKERLFVLTKTNLSYYEYDKMKRGSRKGSIEIKKIRCVEKVNLEEQTPVERQYPFQIVYKDGLLYVYASNEESRSQWLKALQKEIRGNPHLLVKYHSGFFVDGKFLCCQQSCKAAPGCTLWEAYANLHTAVNEEKHRVPTFPDRVLKIPRAVPVLKMDAPSSSTTLAQYDNESKKNYGSQPPSSSTSLAQYDSNSKKIYGSQPNFNMQYIPREDFPDWWQVRKLKSSSSSEDVASSNQKERNVNHTTSKISWEFPESSSSEEEENLDDYDWFAGNISRSQSEQLLRQKGKEGAFMVRNSSQVGMYTVSLFSKAVNDKKGTVKHYHVHTNAENKLYLAENYCFDSIPKLIHYHQHNSAGMITRLRHPVSTKANKVPDSVSLGNGIWELKREEITLLKELGSGQFGVVQLGKWKGQYDVAVKMIKEGSMSEDEFFQEAQTMMKLSHPKLVKFYGVCSKEYPIYIVTEYISNGCLLNYLRSHGKGLEPSQLLEMCYDVCEGMAFLESHQFIHRDLAARNCLVDRDLCVKVSDFGMTRYVLDDQYVSSVGTKFPVKWSAPEVFHYFKYSSKSDVWAFGILMWEVFSLGKQPYDLYDNSQVVLKVSQGHRLYRPHLASDTIYQIMYSCWHELPEKRPTFQQLLSSIEPLREKDKH
